Measured values: paper PMC3124419, “Elucidating the domain architecture and functions of non-core RAG1: The capacity of a non-core zinc-binding domain to function in nuclear import and nucleic acid binding” (BMC Biochemistry, 2011)
No constants are given. Whether binding was seen depends on the method and setting. Where a sequence is shown, tags or fusion partners need not be part of it.

Key:
[1] = target: MBP-RAG1(1-86) (murine) (UniProt P15919); assay: SEC-MALS; MALLS-SEC of MBP fusion proteins, 20 mL Superdex 200, starting concentration 3-10 μM, GFB buffer (20 mM Tris pH 8.0, 0.2 M NaCl, 50 μM ZnCl2, 5 mM βME); both purified
[2] = target: MBP-RAG1(1-86) (murine) (UniProt P15919); assay: SEC; Superdex 200, 20 ml column volume; column buffer 20 mM Tris pH 8.0, 0.2 M NaCl, 50 μM ZnCl2, 5 mM βME; both purified
[3] = target: MBP-CND (murine) (UniProt P15919); assay: SEC-MALS; MALLS-SEC of MBP fusion proteins, 20 mL Superdex 200, starting concentration 3-10 μM, GFB buffer (20 mM Tris pH 8.0, 0.2 M NaCl, 50 μM ZnCl2, 5 mM βME); both purified
[4] = target: tagless CND (murine) (UniProt P15919); assay: SEC-MALS; MALLS-SEC of the tagless domain, 120 mL Superdex 75, loading concentration 23 μM, GFB buffer; both purified

B1: MBP-RAG1(1-86) (domain or fragment, UniProt P15919 1-86)
chain: MAASLPSTLSFSSAPDEIQHPQIKFSEWKFKLFRVRSFEKAPEEAQKEKDSSEGKPYLEQSPVVPEKPGGQNSILTQRALKLHPKF
binding [1]: no binding (tested: 3-10 μM starting concentration)
binding [2]: no binding

B2: MBP-CND (domain or fragment, UniProt P15919 87-217)
chain: SKKFHADGKSSDKAVHQARLRHFCRICGNRFKSDGHSRRYPVHGPVDAKTQSLFRKKEKRVTSWPDLIARIFRIDVKADVDSIHPTEFCHDCWSIMHRKFSSSHSQVYFPRKVTVEWHPHTPSCDICFTAH
binding [3]: no binding (tested: 3-10 μM starting concentration)

B3: tagless CND (domain or fragment, UniProt P15919 87-217)
chain: B2 chain
binding [4]: no binding (tested: 23 μM loading concentration)
